# Measured values published in patent US20230167185A1.
# Protein sequences, listed by entry. Tags and fused reporters are not part of them. Lines headed by an entry give the natural chain unless they say otherwise; changes in a name come on top.
# UniProt P25942: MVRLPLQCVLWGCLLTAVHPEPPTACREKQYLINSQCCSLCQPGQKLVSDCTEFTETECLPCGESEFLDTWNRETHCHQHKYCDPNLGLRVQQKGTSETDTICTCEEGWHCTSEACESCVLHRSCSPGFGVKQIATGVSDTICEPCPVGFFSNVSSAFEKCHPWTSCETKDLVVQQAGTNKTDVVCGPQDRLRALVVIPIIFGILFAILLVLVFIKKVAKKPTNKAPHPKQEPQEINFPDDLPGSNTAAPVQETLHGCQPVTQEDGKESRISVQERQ
# No constants are given. Whether binding was seen depends on the method and setting. Some entries that bind do so weakly or less than the wild type.
# B1: Y-SM083-A9 (antibody, human IgG2, kappa, V domains shown)
# VH: EVQLLESGGGLVQPGGSLRLSCAASGFTFSSYAMSWVRQAPGKGLEWVSGISGYSGSTYYADSVKGRFTISRDNSKNTLYLQMNSLRAEDTAVYYCARYYSYYGYYYFDYWGQGTLVTVSS
# VL: DIQMTQSPSSLSASVGDRVTITCRASQSISSYLNWYQQKPGKAPKLLIYAASSLQSGVPSRFSGSGSGTDFTLTISSLQPEDFATYYCQQGYPYPFTFGQGTKLEIKR
# How the values were obtained:
# [1] = molecular target: Cynomolgus CD40 Fc chimera (R&D Systems #9660-CD) (cynomolgus) (UniProt G7PG38); assay: SPR, captured IgG2
# [2] = molecular target: hCD40-Fc (Sino Biological #10774-H38H) (human) (UniProt P25942); assay: SPR, captured IgG2, hCD40-Fc (Sino) 0.16-100 nM, SCK
binder,measurement,setting,value
B1,binding,[1],binds
same,binding,[2],binds
